Reference: patent US10335420B2, “Nanoparticle-based tumor-targeted drug delivery” (The Scripps Research Institute, priority 2010, dated 2019)
At least one structure is not confirmed: it was looked up by name or label, or the drawing left a doubt.

System: STAT-3
Details: 4T1 cells with IL-6

## CC1(C)CC[C@]2(C(=O)n3ccnc3)CC[C@]3(C)[C@H](C(=O)C=C4[C@@]5(C)C=C(C#N)C(=O)C(C)(C)[C@@H]5CC[C@]43C)[C@@H]2C1 [CDDO-Im, 1-[2-cyano-3-,12-dioxooleana-1,9(11)-dien-28-oyl]imidazole]
  concentrations that blocked STAT-3 phosphorylation and suppressed total STAT-3 protein: 100 nM-1 μM
